Taken from: PubChem BioAssay AID1259254 (NCATS, 2017)
The whole screen tested about 59,000 reagents; below is an unselected part. Of all reagents, about 1,550 (2.6%) are marked active. 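G2 share is only a proxy for re-replication; each gene was hit by three separate siRNAs, and active genes were retested.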 Reagents against one gene are numbered here. Further read-outs or replicates are left out here. Not stated in the record: the amount of reagent.

Assay: 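Finding genes that stop cells copying their DNA twice in one cycle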 (primary screen)
Cells: human HCT116 colorectal cancer cells
Reagent: single siRNA against human genes
Duration: 3 days
Read-out: 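Imaged Hoechst DNA stain sorts each cell into a cycle phase by DNA amount; per plate, G2 fraction set to 0% for non-targeting and 100% for GMNN siRNA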
Scale: G2 robust z-score and G2 cells, % of GMNN control: higher = more G2 cells, more excess DNA replication
Hit rule: 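An siRNA counts as active if its G2 robust z-score lies at least 5 MADs above the screen median; here such calls match roughly 38% of GMNN control or more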

target gene	reagent no.	G2 robust z-score	G2 cells, % of GMNN control	outcome
ADO	1	1.69	14.8	inactive
ADO	2	3.52	27.8	inactive
ADO	3	0.999	10	inactive
NHLH2	1	1.42	12.9	inactive
NHLH2	2	0.266	4.84	inactive
NHLH2	3	-0.892	-3.31	inactive
APOA1	1	-0.331	0.642	inactive
APOA1	2	-0.695	-1.92	inactive
APOA1	3	2.46	20.3	inactive
DUOXA2	1	1.28	12	inactive
DUOXA2	2	-0.0233	2.8	inactive
DUOXA2	3	-0.853	-3.03	inactive
DDN	1	1.86	16	inactive
DDN	2	0.197	4.35	inactive
DDN	3	-0.679	-1.81	inactive
PELP1	1	-0.994	-4.02	inactive
PELP1	2	-0.35	0.502	inactive
PELP1	3	-0.63	-1.47	inactive
PITRM1	1	0.61	7.26	inactive
PITRM1	2	2.58	21.1	inactive
PITRM1	3	-0.0672	2.49	inactive
TOP2A	1	9	66.3	active
TOP2A	2	15.6	113	active
TOP2A	3	11	80.5	active
MRPS33	1	-1.21	-5.52	inactive
MRPS33	2	-0.543	-0.853	inactive
MRPS33	3	1.12	10.8	inactive
TSPAN5	1	6.76	50.5	active
TSPAN5	2	0.27	4.87	inactive
TSPAN5	3	0.654	7.57	inactive
YLPM1	1	-0.69	-1.89	inactive
YLPM1	2	-1.08	-4.64	inactive
YLPM1	3	-0.584	-1.14	inactive
MTFP1	1	-0.584	-1.14	inactive
MTFP1	2	-0.793	-2.61	inactive
MTFP1	3	-0.722	-2.11	inactive
CHST14	1	0.056	3.36	inactive
CHST14	2	-0.0628	2.53	inactive
CHST14	3	-0.474	-0.368	inactive
GMPR	1	4.99	38.1	inactive
GMPR	2	0.457	6.18	inactive
GMPR	3	-0.717	-2.08	inactive
TRIM13	1	0.61	7.26	inactive
TRIM13	2	-0.00976	2.9	inactive
TRIM13	3	-0.0831	2.38	inactive
HS6ST1P1	1	0.958	9.71	inactive
HS6ST1P1	2	-0.369	0.372	inactive
HS6ST1P1	3	0.361	5.51	inactive
HS6ST1P1	4	-0.376	0.319	inactive
HS6ST1P1	5	0.352	5.44	inactive
HS6ST1P1	6	-0.807	-2.71	inactive

3 entries from above, ordered by “G2 cells, % of GMNN control”, lowest first.
target gene	reagent no.	G2 robust z-score	G2 cells, % of GMNN control	outcome
HS6ST1P1	4	-0.376	0.319	inactive
HS6ST1P1	2	-0.369	0.372	inactive
HS6ST1P1	3	0.361	5.51	inactive
